## Screening data, single-dose tests

A: 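Whole-parasite assay of Trypanosoma brucei over 72 hours; the read-out is not stated. Tested at 30 µM. Higher reads as stronger inhibition (inferred: compounds with an IC50 in retests scored well above the rest). Values scatter widely below zero; nearly all retest evidence comes from the higher of the two concentrations used. Of about 64,000 compounds tested this way, about 940 (1.5%) reached 50% or more in at least one test.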
B: 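Assay of Toxoplasma gondii numbers, read through their beta-galactosidase reporter with a colour substrate. Concentration: 10 µM. Higher reads as fewer parasites (inferred from which compounds were picked for retests). About 67,000 compounds were tested under these conditions; 0.38% (about 260) showed 50% or more at least once.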

Values are the deposited “Percent Effect”, in %.
The controls that fix the scale are not given in the record; negative values are as filed.
Compounds were drawn at random from those tested, without regard to their results.
A dash means the value is not listed here; it may have been measured.

compound	A	B
CC(C)CC1COCCN1C(=O)Cc1cccs1 (stereo not shown)	-8.874	5.886
CCn1cnnc1C1CCN(C(=O)c2cccc(-n3cccc3)c2)CC1	-13.59	-1.863
Cc1noc(C)c1-c1nc(N(C)CCN(C)C)ncc1-c1cnccn1	-16.48	8.622
CCCN(CC1COc2ccccc2O1)C(=O)CCN1C(=O)CCC1=O (stereo not shown)	-56.66	3.759
O=C(O)C(F)(F)F.[H][C@]12CN(Cc3cccc(Cl)c3)C[C@@]1([H])S(=O)(=O)CC[C@@H]2C(=O)NCC(C)C	19.97	-1.842
COc1cc(OC)cc(C(=O)NCc2nn(C)c3c2COCC3)c1	-5.689	-6.055
COc1cccc(S(=O)(=O)CCN2CCCC2c2ccc[nH]2)c1 (stereo not shown)	-17.76	1.092
COCc1cc(CC2(NCc3ccccc3Cl)COC2)no1	-6.899	-7.506
CCN1CCN(C2CCN(CC(=O)NCC(F)(F)F)CC2)C1=O	-	-0.4922
CC(=O)NCC(=O)N1CCc2[nH]c(-c3ccccc3)nc2C1	3.009	-9.985
CSCc1noc(CNS(=O)(=O)c2cccc(C(=O)NC3CC3)c2)n1	-15.36	-6.296
Cc1cc(NC(=O)C(c2cccc(F)c2)N2CCOCC2)ccn1 (stereo not shown)	15.51	1.458
Cc1cc(C)c(C(=O)N(C)CCN(C)C(=O)c2[nH]c(C)cc2C)[nH]1	-29.22	5.508
Cc1n[nH]c2c1C(c1ccc3c(c1)OCCO3)SCC(=O)N2 (stereo not shown)	-1.375	27.63
[H][C@@]12CCCCN(C)[C@]1([H])[C@@H](c1ccccc1)CCN2S(=O)(=O)N1CCCC1	98.76	-4.074
CN1CC(Oc2ccccc2)=NC(SCC(=O)Nc2ccccc2Cl)=N1	-29.16	2.409
Cc1cnn(CC2CCCCN2CC(=O)N(C)Cc2ccc(C)o2)c1 (stereo not shown)	-26.79	3.919
CCc1nnc2n1CCN(C(=O)c1cc3ccccc3[nH]1)C2	-18.28	-0.02903
c1cc(-c2ccc3c(c2)CCC32CCNCC2)ccn1	35.83	-0.05394
Cc1cnn(CC2CN(CC(=O)Nc3cc(C)no3)CCO2)c1 (stereo not shown)	-	-5.655
CCc1cccc(N2CCC(NC(=O)C3CCC3)CC2)c1	-24.01	-16.87
CNC(=O)c1cn[nH]c1C1CCN(Cc2cn(C)nc2C)C1 (stereo not shown)	-10.68	1.916
[H][C@]12CC[C@]([H])(CC(=O)N(C)C1)N2C(=O)c1cc2ccccc2[nH]c1=O	-72.77	-29.14
Cc1cc(CN2CCN(C(=O)NCc3nc(C)cs3)CC2)on1	-6.043	-0.8161
Cc1cnn(C2CN(Cc3nc(-c4ccccn4)no3)C2)c1	-3.732	-6.821
Cc1cc(N2CCC3(CCC(=O)N(CC4CC4)C3)CC2)nc(N)n1	23.05	1.116
Cc1cccc(CNC(=O)Nc2cc(C(F)(F)F)c[nH]c2=O)n1	-27.05	0.09153
CCCc1cc(C(=O)N(Cc2cccnc2)Cc2cccnc2)[nH]n1	-56.57	-0.3255
Cc1c[nH]nc1C1CCCCN1C(=O)CC1(O)CCCCC1 (stereo not shown)	20.27	-1.925
[H][C@@]12CS(=O)(=O)C[C@]1([H])N(Cc1ccc(CC)cc1)CCN2CCOC	-24.28	-8.771
CC(C)c1csc(C2CCCN(C(=O)Cn3ccccc3=O)C2)n1 (stereo not shown)	-30.62	-10.59
Cc1nnc(C(C)Nc2ccc(OCCc3ccccc3)nc2)o1 (stereo not shown)	-43.43	5.061
CCOCc1cncc2c1CCN(C(=O)c1cccc(C#N)c1)C2	-27.54	-4.913
CC(C)OCc1ncn2c1CN(CC1CC1)CCC2.O=C(O)C(F)(F)F	-13.21	-5.801
O=C(NCCCc1ccco1)c1ccc(N2CCOCC2)cc1	-19.13	-4.034
O=C([C@H]1CCCO1)N1CCN(Cc2cccnc2)c2ncccc2C1	-6.58	8.364
COCCN1CCCC(O)(CN2CCN(c3cnccn3)CC2)C1=O (stereo not shown)	-0.5843	-6.522
O=C1NCc2ccccc2CC12CCCN(Cc1ccsc1)C2 (stereo not shown)	-	2.814
Cc1cnc(C(=O)N2Cc3ncn(C)c3C(COCC(C)C)C2)cn1.O=C(O)C(F)(F)F (stereo not shown)	-74.29	-5.002
CC(C)Oc1ccc(CNC(=O)c2cc(C(N)=O)cs2)cc1F	-19.88	-11.76
O=C(O)C(F)(F)F.O=C(O)C(F)(F)F.[H][C@@]12CN(Cc3nccs3)C[C@H](C(=O)N3CCCCO3)[C@]1([H])CCO2	-14.16	1.315
Clc1ccc2cccnc2c1CN1CCCCC1Cn1cncn1 (stereo not shown)	-	-14.75
O=C(CN(CC(O)c1ccc(F)cc1)C1CC1)NC1CCOCC1 (stereo not shown)	-22.89	7.773
O=C(CN1CCC(c2ccccc2)CC1)NCc1cc2n(n1)CCNC2	10.83	-32.86
Cn1ccnc1CNC1CCCOc2c1ccc1ccccc21 (stereo not shown)	-8.565	-1.325
NCC1CN(c2nc(-c3cccnc3)nc3c2CCNCC3)CCO1 (stereo not shown)	-46.22	17.83
Cc1cc(F)ccc1-n1cc(O)c(C(N)=O)n1	-37.71	17.75
COc1cc(C)ccc1OCCC(=O)N1CCCC(n2cncn2)C1 (stereo not shown)	-9.515	-2.487
CN(CCNc1cc(N2CCCC2CO)ncn1)Cc1ccccc1 (stereo not shown)	-59.59	27.76
Cc1cc(C)cc(N(CCC#N)C(=O)CN2CCCC2c2cccs2)c1 (stereo not shown)	34.36	6.577
Cc1nc(NC(=O)NC2CC(=O)N(C(C)C)C2)nn1C(C)C (stereo not shown)	-22.6	-12.54
COc1cccc(CCNC(=O)CCS(=O)(=O)C2CCCC2)c1	1.037	-0.4263
CCN1C(=O)CCCC12CCCN(C(=O)c1ccoc1)C2 (stereo not shown)	-47.94	1.512
Cn1ncc2c1CN(C(=O)Cc1ccccn1)CC2COCC1CC1.O=C(O)C(F)(F)F.O=C(O)C(F)(F)F (stereo not shown)	-30.7	2.327
CCCc1nc(C(=O)N2CCN(S(=O)(=O)CC)CC2)cs1	-66.66	-4.587
[H][C@@]12OCCN(C(=O)COc3ccc(C)cc3)[C@@]1([H])CC[C@H]2OC	-62.53	-8.687
O=C(c1cnccn1)N1CCc2onc(Cn3cccn3)c2C1	19.99	5.291
CC(C)NC1CCN(CCc2ccc3c(c2)CCO3)CC1	33.57	21.87
COCC(=O)Nc1nccn1Cc1ccc(Br)cc1	-	-9.13
CC(=O)NCCNC(=O)C1(N2CCCCC2)Cc2ccccc2C1	2.126	-4.019
CSCCCNC(=O)C(c1cccc(F)c1)N(C)C (stereo not shown)	-16.83	-1.379
Cc1[nH]nc2ncc(C(=O)N3CCN(CC(O)C(C)(C)C)CC3)cc12 (stereo not shown)	-35.71	1.84
Cc1ccc(C(C(=O)O)N(C)CCCN2CCOCC2)c(C)c1 (stereo not shown)	-23.85	-3.954

Repeated from the top, 5 entries:

{"compound": "CC(C)CC1COCCN1C(=O)Cc1cccs1", "stereo": "stereo not shown", "A": -8.874, "B": 5.886}
{"compound": "CCn1cnnc1C1CCN(C(=O)c2cccc(-n3cccc3)c2)CC1", "A": -13.59, "B": -1.863}
{"compound": "Cc1noc(C)c1-c1nc(N(C)CCN(C)C)ncc1-c1cnccn1", "A": -16.48, "B": 8.622}
{"compound": "CCCN(CC1COc2ccccc2O1)C(=O)CCN1C(=O)CCC1=O", "stereo": "stereo not shown", "A": -56.66, "B": 3.759}
{"compound": "O=C(O)C(F)(F)F.[H][C@]12CN(Cc3cccc(Cl)c3)C[C@@]1([H])S(=O)(=O)CC[C@@H]2C(=O)NCC(C)C", "A": 19.97, "B": -1.842}

From ChEMBL document CHEMBL3988442, “University of Dundee, Small-Polar-MMV Screening Library” (2021).